{"source": "patent US5322931", "about": "(dated 1994)", "test": "general procedure: solution-phase peptide synthesis; dicyclohexylcarbodiimide / N-hydroxysuccinimide ester", "settings": "tetratrifluoroacetate salt", "note": "Where no end group is shown, it is not given here. [ ]: non-standard residue; d: D form. The star is where a group is joined. Boc = CC(C)(C)OC(=O)*", "data": [{"substance": "Boc-K(Boc)H[dW]A-OH", "values": [{"measurement": "step yield", "setting": "late stage modification step", "value": 55, "unit": "%"}]}, {"substance": "Boc-K(Boc)H[dW]A-OMe", "values": [{"measurement": "step yield", "setting": "coupling step", "value": 104, "unit": "%"}]}, {"substance": "KH[dW]AW[dF]K-NH2", "values": [{"measurement": "final HPLC purity", "setting": "late stage modification step, 280 nm", "value": "greater than 95%"}, {"measurement": "final HPLC purity", "setting": "late stage modification step, HPLC (total integrated intensity at 280 nm)", "value": "approximately 90%"}, {"measurement": "step yield", "setting": "late stage modification step, after lyophilization", "value": 51, "unit": "%"}, {"measurement": "final purity (method not given)", "setting": "late stage modification step, proton NMR, organic components", "value": "greater than 80%"}]}]}
